Assay results as given in the supplement of paper PMC12067093, “Discovery and optimisation of a covalent ligand for TRIM25 and its application to targeted protein ubiquitination” (Chemical Science, 2025).
The other results are listed elsewhere or left out.

What follows are targets tested with Cc1cc(ccc1-c1ccccc1)C(=O)N1CCCN(CC1)C(=O)CCl [compound 10] (assay: probe-labelled cysteine peptide fold change vs DMSO (competition) (log2 fold change); higher = less target engagement (more negative = stronger competition)). Conditions: 10 µM; THP-1; incubation time: 4 h.
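Note: competitive profiling in live THP-1 cells: cysteine peptides tagged with an iodoacetamide desthiobiotin (IA-DTB) probe, intensity after compound treatment relative to DMSO-treated cells.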

Target	probe-labelled cysteine peptide fold change
BABAM2_Q9NXR7_254_IEHALGGSSALHIPAFPGGGCLIDYVPQVCHLLTNK (UniProt Q9NXR7)	0.0836
ATXN2_Q99700_852_DSFIENSSSNCTSGSSKPNSPSISPSILSNTEHK (UniProt Q99700)	-0.189
BLMH_Q13867_326_DGEAVWFGCDVGK (UniProt Q13867)	-0.0396
BAZ1B_Q9UIG0_1435_TEQCLVALLHK (UniProt Q9UIG0)	-0.093
AURKB_Q96GD4_191_TATIMEELADALMYCHGK (UniProt Q96GD4)	0.167
BAZ1A_Q9NRL2_764_QEQINCVTREPLTADEEEALKQEHQR (UniProt Q9NRL2)	-0.206
BAZ1B_Q9UIG0_1348_CEEILHK (UniProt Q9UIG0)	-0.0204
AZU1_P20160_68_FVMTAASCFQSQNPGVSTVVLGAYDLR (UniProt P20160)	-0.178
AZU1_P20160_207_RGGICNGDGGTPLVCEGLAHGVASFSLGPCGR (UniProt P20160)	0.168
BABAM2_Q9NXR7_129_ELVQQYHQFQCSR (UniProt Q9NXR7)	0.422
ATXN2_Q99700_556_VVNGGVPWPSPCPSPSSRPPSR (UniProt Q99700)	-0.149
AZI2_Q9H6S1_10_MDALVEDDICILNHEK (UniProt Q9H6S1)	-0.339
BANK1_Q8NDB2_349_ELPTLLHCAAK (UniProt Q8NDB2)	0.0399
BAG1_Q99933_213_EMETPLSALGIQDGCR (UniProt Q99933)	0.036
BMP2K_Q9NSY1_160_LQTGFTEPEVLQIFCDTCEAVAR (UniProt Q9NSY1)	-0.845
BLVRB_P30043_109_VVACTSAFLLWDPTK (UniProt P30043)	0.133
BCAR1_P56945_46_KGDIMTVLEQDTQGLDGWWLCSLHGR (UniProt P56945)	0.292
AUP1_Q9Y679_124_VLISNHVTPFDHNIVNLLTTCSTPLLNSPPSFVCWSR (UniProt Q9Y679)	-0.188
AVL9_Q8NBF6_119_SVCVLSK (UniProt Q8NBF6)	-0.214

Retrieved one by one from the entries so far (two):
Target	probe-labelled cysteine peptide fold change
AUP1_Q9Y679_124_VLISNHVTPFDHNIVNLLTTCSTPLLNSPPSFVCWSR (UniProt Q9Y679)	-0.188
AVL9_Q8NBF6_119_SVCVLSK (UniProt Q8NBF6)	-0.214

The list continues:

Target	probe-labelled cysteine peptide fold change
BAZ2A_Q9UIF9_1697_GDNDEFLLLCDGCDR (UniProt Q9UIF9)	0.096
BAZ1A_Q9NRL2_404_PREDMECDDLK (UniProt Q9NRL2)	-0.207
BLVRA_P53004_204_MTVCLETEKK (UniProt P53004)	0.15
BOD1L1_Q8NFC6_1554_QSEVALPCTSIEADEGLIIGTHSR (UniProt Q8NFC6)	-0.156
BCKDHB_P21953_228_GLLLSCIEDK (UniProt P21953)	0.0863
BOD1L1_Q8NFC6_2164_CAESLQPVAAAVEER (UniProt Q8NFC6)	-0.567
B4GALT1_P15291_262_CFSQPR (UniProt P15291)	-0.177
BAZ1A_Q9NRL2_799_IQSAIACTNIFPLGR (UniProt Q9NRL2)	0.087
BIRC6_Q9NR09_566_HQEQHNIPFPCLLAGGLLTYK (UniProt Q9NR09)	-0.0568
BCAP29_Q9UHQ4_171_SHGKDEECVLEAENK (UniProt Q9UHQ4)	-0.122
BIN2_Q9UBW5_205_IGCYVTIFQNISNLR (UniProt Q9UBW5)	-0.0758
BAG2_O95816_142_SHLMSLYSACSSEVPHGPVDQK (UniProt O95816)	0.233
BIN2_Q9UBW5_496_ENENIHNQNPEELCTSPTLMTSQVASEPGEAK (UniProt Q9UBW5)	0.0699
BLNK_Q8WV28_271_TTPVASQQNASSVCEEKPIPAER (UniProt Q8WV28)	-0.0862
AZU1_P20160_222_RGGICNGDGGTPLVCEGLAHGVASFSLGPCGR (UniProt P20160)	-0.133
BRAP_Q7Z569_264_CTVCLER (UniProt Q7Z569)	0.162
BAHD1_Q8TBE0_598_TNGWVPVGAACEK (UniProt Q8TBE0)	0.00869
BOP1_Q14137_620_LMPNCK (UniProt Q14137)	0.00926
BAZ1B_Q9UIG0_497_SALSCVISK (UniProt Q9UIG0)	-0.339
